Measurements from patent publication US20130115220A1, “METHOD FOR PREVENTION OR TREATMENT OF METABOLIC SYNDROME” (DAINIPPON SUMITOMO PHARMA CO., LTD., priority 2010, published 2013).
Results are given in words; binding and its absence hold for the method and conditions named. Binding seen in cells or lysates may run through a third protein. Some entries that bind do so weakly or less than the wild type. Tags and fused reporters may be left off the sequences shown.

Key:
[1] = target: T1, dehydrase (DH) domain of FAS labeled with Flag at the N-terminal (UniProt P19096); assay: co-immunoprecipitation of Flag-tagged FAS domain with AIM-HA in HEK293T cells
T1 sequence (looked up): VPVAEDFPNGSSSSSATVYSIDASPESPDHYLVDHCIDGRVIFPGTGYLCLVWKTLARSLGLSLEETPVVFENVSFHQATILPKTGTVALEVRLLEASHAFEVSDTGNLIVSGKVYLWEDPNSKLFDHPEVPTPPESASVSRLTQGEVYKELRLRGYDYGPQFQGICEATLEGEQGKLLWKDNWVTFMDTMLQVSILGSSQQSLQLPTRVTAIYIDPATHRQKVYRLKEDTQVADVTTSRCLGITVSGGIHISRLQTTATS

[2] = target: T2, thioesterase (TE) domain of FAS labeled with Flag at the N-terminal (UniProt P19096); assay: as above
T2 sequence (looked up): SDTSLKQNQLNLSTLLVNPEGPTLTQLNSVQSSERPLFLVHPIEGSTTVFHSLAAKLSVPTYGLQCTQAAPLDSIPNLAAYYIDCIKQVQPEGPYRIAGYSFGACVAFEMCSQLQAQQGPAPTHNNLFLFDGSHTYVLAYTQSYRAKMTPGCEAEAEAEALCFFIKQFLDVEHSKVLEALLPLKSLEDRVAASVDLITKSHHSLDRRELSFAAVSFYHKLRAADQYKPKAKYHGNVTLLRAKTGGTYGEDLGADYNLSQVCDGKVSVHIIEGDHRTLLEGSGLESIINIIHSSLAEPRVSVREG

[3] = target: endogenous fatty acid synthase (FAS) of mouse adipose tissue and 3T3-L1 adipocytes (mouse) (UniProt P19096); assay: co-immunoprecipitation with anti-HA antibody from adipose tissue of AIM-/- mice injected with rAIM-HA; Western blot for FAS
[4] = target: endogenous fatty acid synthase (FAS) of mouse adipose tissue and 3T3-L1 adipocytes (mouse) (UniProt P19096); assay: co-immunoprecipitation with anti-HA antibody from adipose tissue; Western blot (legend of FIG. 24)
[5] = target: full-length FAS labeled with FLAG-tag (UniProt P19096); assay: co-immunoprecipitation with anti-Flag or anti-HA antibody, both co-expressed in HEK 293T cells
[6] = target: full-length FAS labeled with FLAG-tag (UniProt P19096); assay: co-immunoprecipitation with anti-Flag or anti-HA antibody in HEK 293T cells (legend of FIG. 25)

Measured: binding

B1: recombinant AIM protein (rAIM) of mouse labeled with HA-tag (ligand, not shown: small tags and cut ends)
chain: ESPTKVQLVGGAHRCEGRVEVEHNGQWGTVCDDGWDRRDVAVVCRELNCGAVIQTPRGASYQPPASEQRVLIQGVDCNGTEDTLAQCELNYYVFDCSHEEDAGAQCENPDSDLLFIPEDVRLVDGPGHCQGRVEVLHQSQWSTVCKAGWNLQVSKVVCRQLGCGRALLTYGSCNKNTQGKGPIWMGKMSCSGQEANLRSCLLSRLENNCTHGEDTWMECEDPFELKLVGGDTPCSGRLEVLHKGSWGSVCDDNWGEKEDQVVCKQLGCGKSLHPSPKTRKIYGPGAGRIWLDDVNCSGKEQSLEFCRHRLWGYHDCTHKEDVEVICTDFDV
binds: all assays above
